# From PMC2659799
# These are yes or no findings as the source states them, for the method shown. Binding seen in cells or lysates may run through a third protein. Some binding calls cover weakened binding; strength is not graded here.
# Molecular target: Cellular prion protein (PrP^C) (human (endogenous in plasma microvesicles)) (UniProt P04156)
# Experiment: co-IP
substance,measurement,value
p59Fyn kinase (from UniProt P06241 1-537) (enzyme),binding,binds
